# Measurements taken from the supplement of paper PMC8728848.
# The other results are listed elsewhere or left out.
# Assays:
# Assay in all cases: glycan array binding signal (z-score within array); higher = stronger binding
# Settings in all cases: glycan notation: IUPAC condensed, linker removed
# [1] = target: Fuc(a1-2)Gal
# In short: (§1)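 Glycan array data came from 3228 arrays in the Consortium for Functional Glycomics database, and only arrays with an available protein sequence were kept. Glycan names were put into IUPAC-condensed notation, and columns mapping to the same glycan were averaged. The binding signal is a within-array Z-score, averaged across arrays of one protein sequence run at different concentrations or buffers and across linkers. A negative Z-score can be read as non-binding.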
# [2] = target: Fuc(a1-2)Gal(b1-3)GalNAc
# In short: as §1
# [3] = target: Fuc(a1-2)Gal(b1-3)GalNAc(a1-3)[Fuc(a1-2)]Gal(b1-4)Glc
# In short: as §1
# [4] = target: Fuc(a1-2)Gal(b1-3)GalNAc(a1-3)[Fuc(a1-2)]Gal(b1-4)GlcNAc
# In short: as §1
# [5] = target: Fuc(a1-2)Gal(b1-3)GalNAc(b1-3)Gal
# In short: as §1
# [6] = target: Fuc(a1-2)Gal(b1-3)GalNAc(b1-3)Gal(a1-4)Gal(b1-4)Glc
# In short: as §1
# [7] = target: Fuc(a1-2)Gal(b1-3)GalNAc(b1-4)[Neu5Ac(a2-3)]Gal(b1-4)Glc
# In short: as §1
# [8] = target: Fuc(a1-2)Gal(b1-3)GlcNAc
# In short: as §1
# [9] = target: Fuc(a1-2)Gal(b1-3)GlcNAc(b1-2)Man(a1-3)[Fuc(a1-2)Gal(b1-3)GlcNAc(b1-2)Man(a1-6)]Man(b1-4)GlcNAc(b1-4)GlcNAc
# In short: as §1
# [10] = target: Fuc(a1-2)Gal(b1-3)GlcNAc(b1-3)Gal(b1-4)Glc
# In short: as §1
# [11] = target: Fuc(a1-2)Gal(b1-3)GlcNAc(b1-3)[Fuc(a1-3)[Gal(b1-4)]GlcNAc(b1-6)]Gal(b1-4)Glc
# In short: as §1
# [12] = target: Fuc(a1-2)Gal(b1-3)[Fuc(a1-4)]GlcNAc
# In short: as §1
# [13] = target: Fuc(a1-2)Gal(b1-3)[Fuc(a1-4)]GlcNAc(b1-2)Man(a1-3)[Fuc(a1-2)Gal(b1-3)[Fuc(a1-4)]GlcNAc(b1-2)Man(a1-6)]Man(b1-4)GlcNAc(b1-4)GlcNAc
# In short: as §1
# [14] = target: Fuc(a1-2)Gal(b1-3)[Fuc(a1-4)]GlcNAc(b1-3)[Fuc(a1-3)[Gal(b1-4)]GlcNAc(b1-6)]Gal(b1-4)Glc
# In short: as §1
# [15] = target: Fuc(a1-2)Gal(b1-3)[Fuc(a1-4)]GlcNAc(b1-3)[Gal(b1-4)GlcNAc(b1-6)]Gal(b1-4)Glc
# In short: as §1
# [16] = target: Fuc(a1-2)Gal(b1-4)Glc
# In short: as §1
# [17] = target: Fuc(a1-2)Gal(b1-4)Glc6S
# In short: as §1
# [18] = target: Fuc(a1-2)Gal(b1-4)GlcNAc
# In short: as §1
# [19] = target: Fuc(a1-2)Gal(b1-4)GlcNAc(b1-2)Man(a1-3)[Fuc(a1-2)Gal(b1-4)GlcNAc(b1-2)Man(a1-6)]Man(b1-4)GlcNAc(b1-4)GlcNAc
# In short: as §1
# [20] = target: Fuc(a1-2)Gal(b1-4)GlcNAc(b1-3)Gal(b1-4)GlcNAc
# In short: as §1
# [21] = target: Fuc(a1-2)Gal(b1-4)GlcNAc(b1-3)Gal(b1-4)GlcNAc(b1-3)Gal(b1-4)GlcNAc
# In short: as §1
# [22] = target: Fuc(a1-2)Gal(b1-4)GlcNAc(b1-3)GalNAc
# In short: as §1
# [23] = target: Fuc(a1-2)Gal(b1-4)GlcNAc6S
# In short: as §1
# [24] = target: Fuc(a1-2)Gal(b1-4)[Fuc(a1-3)]GlcNAc
# In short: as §1
# [25] = target: Fuc(a1-2)Gal(b1-4)[Fuc(a1-3)]GlcNAc(b1-2)Man(a1-3)[Fuc(a1-2)Gal(b1-4)[Fuc(a1-3)]GlcNAc(b1-2)Man(a1-6)]Man(b1-4)GlcNAc(b1-4)GlcNAc
# In short: as §1
# [26] = target: Fuc(a1-2)Gal(b1-4)[Fuc(a1-3)]GlcNAc(b1-3)Gal(b1-4)[Fuc(a1-3)]GlcNAc
# In short: as §1
# [27] = target: Fuc(a1-2)Gal(b1-4)[Fuc(a1-3)]GlcNAc(b1-3)Gal(b1-4)[Fuc(a1-3)]GlcNAc(b1-3)Gal(b1-4)[Fuc(a1-3)]GlcNAc
# In short: as §1
# [28] = target: Fuc(a1-2)Gal6S(b1-4)Glc
# In short: as §1
# [29] = target: Fuc(a1-2)Gal6S(b1-4)Glc6S
# In short: as §1
# [30] = target: Fuc(a1-2)Gal6S(b1-4)GlcNAc
# In short: as §1
binder,measurement,setting,value
"PEB3 (Campylobacter jejuni), Q0PBL7 (protein) MKKIITLFGACALAFSMANADVNLYGPGGPHTALKDIANKYSEKTGVKVNVNFGPQATWFEKAKKDADILFGASDQSALAIASDFGKDFNVSKIKPLYFREAIILTQKGNPLKIKGLKDLANKKVRIVVPEGAGKSNTSGTGVWEDMIGRTQDIKTIQNFRNNIVAFVPNSGSARKLFAQDQADAWITWIDWSKSNPDIGTAVAIEKDLVVYRTFNVIAKEGASKETQDFIAYLSSKEAKEIFKKYGWRE",glycan array binding signal (z-score),[1],-0.558
same,glycan array binding signal (z-score),[2],0.049
same,glycan array binding signal (z-score),[3],0.632
same,glycan array binding signal (z-score),[4],0.04
same,glycan array binding signal (z-score),[5],0.519
same,glycan array binding signal (z-score),[6],-0.105
same,glycan array binding signal (z-score),[7],0.671
same,glycan array binding signal (z-score),[8],0.854
same,glycan array binding signal (z-score),[9],0.377
same,glycan array binding signal (z-score),[10],0.665
same,glycan array binding signal (z-score),[11],0.12
same,glycan array binding signal (z-score),[12],7.5
same,glycan array binding signal (z-score),[13],0.672
same,glycan array binding signal (z-score),[14],0.638
same,glycan array binding signal (z-score),[15],2.31
same,glycan array binding signal (z-score),[16],0.179
same,glycan array binding signal (z-score),[17],0.932
same,glycan array binding signal (z-score),[18],0.611
same,glycan array binding signal (z-score),[19],0.952
same,glycan array binding signal (z-score),[20],0.234
same,glycan array binding signal (z-score),[21],2.43
same,glycan array binding signal (z-score),[22],-0.26
same,glycan array binding signal (z-score),[23],0.544
same,glycan array binding signal (z-score),[24],-0.866
same,glycan array binding signal (z-score),[25],4.64
same,glycan array binding signal (z-score),[26],-0.389
same,glycan array binding signal (z-score),[27],0.435
same,glycan array binding signal (z-score),[28],-0.555
same,glycan array binding signal (z-score),[29],-0.731
same,glycan array binding signal (z-score),[30],-0.248

# Reprinted at random: 2 entries already listed, in no set order.
binder,measurement,setting,value
"PEB3 (Campylobacter jejuni), Q0PBL7 (protein) MKKIITLFGACALAFSMANADVNLYGPGGPHTALKDIANKYSEKTGVKVNVNFGPQATWFEKAKKDADILFGASDQSALAIASDFGKDFNVSKIKPLYFREAIILTQKGNPLKIKGLKDLANKKVRIVVPEGAGKSNTSGTGVWEDMIGRTQDIKTIQNFRNNIVAFVPNSGSARKLFAQDQADAWITWIDWSKSNPDIGTAVAIEKDLVVYRTFNVIAKEGASKETQDFIAYLSSKEAKEIFKKYGWRE",glycan array binding signal (z-score),[8],0.854
same,glycan array binding signal (z-score),[13],0.672
